# Source: the supplement of paper PMC10849652
# Protein sequences, listed by entry. Tags and fused reporters are not part of them. Lines headed by an entry give the natural chain unless they say otherwise; changes in a name come on top.
# UniProt O00764: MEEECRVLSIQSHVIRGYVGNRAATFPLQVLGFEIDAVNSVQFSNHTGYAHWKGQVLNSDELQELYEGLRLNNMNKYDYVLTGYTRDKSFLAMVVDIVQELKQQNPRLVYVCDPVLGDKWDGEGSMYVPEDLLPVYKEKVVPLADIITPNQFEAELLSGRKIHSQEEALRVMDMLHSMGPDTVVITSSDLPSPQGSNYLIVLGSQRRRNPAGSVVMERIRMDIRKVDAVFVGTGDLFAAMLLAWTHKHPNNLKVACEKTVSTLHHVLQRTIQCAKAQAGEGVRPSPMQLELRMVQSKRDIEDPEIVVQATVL
# UniProt Q9BUH6, whole entry, looked up: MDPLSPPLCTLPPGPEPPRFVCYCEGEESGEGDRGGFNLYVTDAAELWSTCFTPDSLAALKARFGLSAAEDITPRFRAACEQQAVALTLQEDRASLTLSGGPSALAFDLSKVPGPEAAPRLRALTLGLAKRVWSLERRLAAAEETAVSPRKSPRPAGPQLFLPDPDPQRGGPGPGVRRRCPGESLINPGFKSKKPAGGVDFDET
# UniProt P56645: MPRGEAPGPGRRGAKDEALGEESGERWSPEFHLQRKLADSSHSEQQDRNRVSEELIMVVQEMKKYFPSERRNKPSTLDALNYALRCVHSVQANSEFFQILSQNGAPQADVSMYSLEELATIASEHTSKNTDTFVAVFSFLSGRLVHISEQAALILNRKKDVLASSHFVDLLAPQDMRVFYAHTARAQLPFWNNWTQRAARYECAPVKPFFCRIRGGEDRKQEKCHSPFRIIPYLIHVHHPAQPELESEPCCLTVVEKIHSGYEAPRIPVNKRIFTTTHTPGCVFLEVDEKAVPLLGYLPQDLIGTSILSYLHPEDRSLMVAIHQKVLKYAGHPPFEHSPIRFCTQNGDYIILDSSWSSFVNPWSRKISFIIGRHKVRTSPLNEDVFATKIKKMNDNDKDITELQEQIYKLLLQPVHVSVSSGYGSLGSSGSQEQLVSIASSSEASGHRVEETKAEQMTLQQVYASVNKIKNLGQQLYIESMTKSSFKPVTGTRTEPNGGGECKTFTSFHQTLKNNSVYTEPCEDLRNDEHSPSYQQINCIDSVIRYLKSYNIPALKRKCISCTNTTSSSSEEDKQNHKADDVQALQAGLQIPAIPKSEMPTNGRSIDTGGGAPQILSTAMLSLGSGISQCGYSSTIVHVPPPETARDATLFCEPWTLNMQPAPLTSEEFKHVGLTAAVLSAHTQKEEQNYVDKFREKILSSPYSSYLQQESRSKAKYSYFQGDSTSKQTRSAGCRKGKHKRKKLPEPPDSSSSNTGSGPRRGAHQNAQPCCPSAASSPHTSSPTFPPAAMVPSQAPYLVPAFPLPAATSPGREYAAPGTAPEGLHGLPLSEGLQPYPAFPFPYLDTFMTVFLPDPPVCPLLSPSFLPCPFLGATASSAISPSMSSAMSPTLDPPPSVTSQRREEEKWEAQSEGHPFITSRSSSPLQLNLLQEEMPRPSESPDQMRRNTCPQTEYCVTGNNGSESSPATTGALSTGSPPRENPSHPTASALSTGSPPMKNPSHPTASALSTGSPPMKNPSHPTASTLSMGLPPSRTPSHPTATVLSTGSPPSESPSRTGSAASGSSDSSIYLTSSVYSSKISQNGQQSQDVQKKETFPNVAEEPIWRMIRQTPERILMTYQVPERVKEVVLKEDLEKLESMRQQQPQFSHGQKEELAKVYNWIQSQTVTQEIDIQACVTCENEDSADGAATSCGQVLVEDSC
# UniProt Q01813: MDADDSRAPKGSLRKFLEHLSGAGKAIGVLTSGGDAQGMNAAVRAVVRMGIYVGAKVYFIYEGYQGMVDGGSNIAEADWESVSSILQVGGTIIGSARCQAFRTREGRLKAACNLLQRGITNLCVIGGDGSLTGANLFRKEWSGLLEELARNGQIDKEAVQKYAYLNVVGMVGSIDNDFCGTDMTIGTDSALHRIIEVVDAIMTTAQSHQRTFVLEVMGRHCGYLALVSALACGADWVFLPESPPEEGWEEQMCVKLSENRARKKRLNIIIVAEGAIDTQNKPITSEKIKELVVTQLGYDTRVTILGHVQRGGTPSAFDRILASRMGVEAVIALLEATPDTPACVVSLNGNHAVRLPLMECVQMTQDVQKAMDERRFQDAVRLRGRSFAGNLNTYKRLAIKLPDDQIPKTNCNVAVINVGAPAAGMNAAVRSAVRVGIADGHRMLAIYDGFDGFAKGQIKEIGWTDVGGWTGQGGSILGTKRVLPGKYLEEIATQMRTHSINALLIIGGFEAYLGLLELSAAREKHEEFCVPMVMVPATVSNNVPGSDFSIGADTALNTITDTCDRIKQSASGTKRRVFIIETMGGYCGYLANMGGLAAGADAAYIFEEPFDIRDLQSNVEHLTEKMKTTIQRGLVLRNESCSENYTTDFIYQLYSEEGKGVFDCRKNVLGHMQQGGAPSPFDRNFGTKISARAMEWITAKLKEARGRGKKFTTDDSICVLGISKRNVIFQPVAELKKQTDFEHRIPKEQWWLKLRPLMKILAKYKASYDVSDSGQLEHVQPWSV
# UniProt Q5EBL8: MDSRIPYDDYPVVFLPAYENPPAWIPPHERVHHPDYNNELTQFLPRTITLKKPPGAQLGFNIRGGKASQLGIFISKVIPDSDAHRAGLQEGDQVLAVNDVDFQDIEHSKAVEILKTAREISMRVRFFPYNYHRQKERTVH
# UniProt O43924: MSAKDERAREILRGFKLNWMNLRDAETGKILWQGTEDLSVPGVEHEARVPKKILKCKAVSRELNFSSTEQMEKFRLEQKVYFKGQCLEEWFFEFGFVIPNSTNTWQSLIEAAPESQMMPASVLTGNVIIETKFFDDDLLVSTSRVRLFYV
# UniProt Q6P996: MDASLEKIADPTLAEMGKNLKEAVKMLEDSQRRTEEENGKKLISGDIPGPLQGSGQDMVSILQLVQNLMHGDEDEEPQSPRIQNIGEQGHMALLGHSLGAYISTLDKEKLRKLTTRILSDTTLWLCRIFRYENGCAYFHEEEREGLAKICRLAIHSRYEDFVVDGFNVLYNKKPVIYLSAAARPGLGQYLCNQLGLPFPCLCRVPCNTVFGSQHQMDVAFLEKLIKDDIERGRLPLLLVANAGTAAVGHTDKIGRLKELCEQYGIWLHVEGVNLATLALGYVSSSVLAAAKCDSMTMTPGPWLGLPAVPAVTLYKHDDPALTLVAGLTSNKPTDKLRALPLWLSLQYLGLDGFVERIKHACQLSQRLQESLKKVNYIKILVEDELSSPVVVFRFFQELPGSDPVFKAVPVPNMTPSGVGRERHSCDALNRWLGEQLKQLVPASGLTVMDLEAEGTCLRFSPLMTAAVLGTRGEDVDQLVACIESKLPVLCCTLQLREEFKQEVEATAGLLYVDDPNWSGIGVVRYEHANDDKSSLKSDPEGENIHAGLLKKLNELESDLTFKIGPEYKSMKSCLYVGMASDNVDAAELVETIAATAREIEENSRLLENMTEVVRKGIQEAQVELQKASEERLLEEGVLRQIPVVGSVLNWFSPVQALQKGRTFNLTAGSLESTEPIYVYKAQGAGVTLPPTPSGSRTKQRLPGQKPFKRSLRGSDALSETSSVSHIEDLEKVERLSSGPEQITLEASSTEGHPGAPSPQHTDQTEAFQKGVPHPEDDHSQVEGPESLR
# UniProt Q86YH6: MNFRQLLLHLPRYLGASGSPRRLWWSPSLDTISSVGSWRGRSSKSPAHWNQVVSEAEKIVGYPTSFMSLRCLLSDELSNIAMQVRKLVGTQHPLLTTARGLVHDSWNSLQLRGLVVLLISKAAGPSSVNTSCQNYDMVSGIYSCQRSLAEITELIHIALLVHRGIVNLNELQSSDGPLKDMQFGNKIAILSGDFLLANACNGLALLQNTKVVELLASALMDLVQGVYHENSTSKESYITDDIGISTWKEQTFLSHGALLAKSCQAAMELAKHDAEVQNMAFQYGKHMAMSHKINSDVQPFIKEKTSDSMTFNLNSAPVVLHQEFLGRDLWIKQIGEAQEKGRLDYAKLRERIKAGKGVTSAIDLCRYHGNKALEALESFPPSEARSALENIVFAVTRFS
# UniProt Q9NR12, whole entry, looked up: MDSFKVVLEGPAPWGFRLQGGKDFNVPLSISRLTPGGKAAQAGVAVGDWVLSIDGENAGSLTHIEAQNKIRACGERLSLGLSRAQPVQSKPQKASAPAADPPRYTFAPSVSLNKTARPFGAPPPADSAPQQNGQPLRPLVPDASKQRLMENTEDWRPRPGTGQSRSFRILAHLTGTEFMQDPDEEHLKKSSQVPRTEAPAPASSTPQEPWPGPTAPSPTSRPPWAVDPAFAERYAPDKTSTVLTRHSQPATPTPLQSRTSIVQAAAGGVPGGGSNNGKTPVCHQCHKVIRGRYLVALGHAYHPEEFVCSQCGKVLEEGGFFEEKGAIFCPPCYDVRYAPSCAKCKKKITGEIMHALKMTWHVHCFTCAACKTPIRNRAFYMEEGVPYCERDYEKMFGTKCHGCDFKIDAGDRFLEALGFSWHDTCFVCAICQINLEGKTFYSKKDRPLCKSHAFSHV
# UniProt Q16877: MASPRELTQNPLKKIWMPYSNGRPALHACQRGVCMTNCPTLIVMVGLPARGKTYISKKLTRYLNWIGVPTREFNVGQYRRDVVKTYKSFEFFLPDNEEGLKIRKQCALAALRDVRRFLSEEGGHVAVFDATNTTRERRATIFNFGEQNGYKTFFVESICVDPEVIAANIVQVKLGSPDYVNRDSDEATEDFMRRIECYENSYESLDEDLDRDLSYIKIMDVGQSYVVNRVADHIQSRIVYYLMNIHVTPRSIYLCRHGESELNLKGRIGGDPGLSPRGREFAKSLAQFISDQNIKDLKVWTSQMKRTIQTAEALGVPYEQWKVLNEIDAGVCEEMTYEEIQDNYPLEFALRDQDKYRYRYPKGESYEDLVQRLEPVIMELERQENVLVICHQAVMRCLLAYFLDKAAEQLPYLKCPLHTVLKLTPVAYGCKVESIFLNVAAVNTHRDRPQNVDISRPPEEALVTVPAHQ
# UniProt O00628: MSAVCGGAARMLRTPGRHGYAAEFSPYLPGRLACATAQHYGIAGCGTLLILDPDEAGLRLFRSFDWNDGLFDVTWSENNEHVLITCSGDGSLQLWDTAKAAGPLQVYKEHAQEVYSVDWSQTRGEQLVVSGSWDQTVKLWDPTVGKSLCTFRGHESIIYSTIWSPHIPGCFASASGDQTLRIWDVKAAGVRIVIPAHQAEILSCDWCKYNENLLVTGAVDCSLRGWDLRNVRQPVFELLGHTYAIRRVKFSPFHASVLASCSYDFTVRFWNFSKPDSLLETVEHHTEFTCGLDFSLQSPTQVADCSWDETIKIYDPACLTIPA
# UniProt Q96AQ6: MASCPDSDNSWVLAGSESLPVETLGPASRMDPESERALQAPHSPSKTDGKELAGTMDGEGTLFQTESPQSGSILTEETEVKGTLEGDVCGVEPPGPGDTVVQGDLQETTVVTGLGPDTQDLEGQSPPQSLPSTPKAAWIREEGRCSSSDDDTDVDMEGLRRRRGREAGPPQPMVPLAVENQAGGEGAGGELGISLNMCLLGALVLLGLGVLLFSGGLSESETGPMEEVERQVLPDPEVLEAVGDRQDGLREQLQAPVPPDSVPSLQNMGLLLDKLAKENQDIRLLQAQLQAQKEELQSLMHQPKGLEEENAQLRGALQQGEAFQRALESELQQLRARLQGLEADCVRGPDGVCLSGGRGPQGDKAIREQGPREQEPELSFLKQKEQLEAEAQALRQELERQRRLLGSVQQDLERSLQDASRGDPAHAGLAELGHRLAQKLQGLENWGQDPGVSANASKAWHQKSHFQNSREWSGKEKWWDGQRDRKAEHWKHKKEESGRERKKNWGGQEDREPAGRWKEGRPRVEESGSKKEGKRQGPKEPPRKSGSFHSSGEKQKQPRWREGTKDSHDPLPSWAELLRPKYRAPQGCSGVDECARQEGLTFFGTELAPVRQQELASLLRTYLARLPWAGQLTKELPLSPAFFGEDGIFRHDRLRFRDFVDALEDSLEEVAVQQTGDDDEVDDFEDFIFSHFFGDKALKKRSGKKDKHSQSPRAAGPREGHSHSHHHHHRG
# This is one part of the list.
# Legend:
# Assay in all cases: log2 fold change, soluble protein after heating vs DMSO (PISA); higher = thermal stabilisation; K562 lysate, 10 uM; active = over 0.2 and 3.5 SD of the protein, either way, in both replicates (recomputed)
# alvocidib = compound: CN1CC[C@H](c2c(O)cc(O)c3c(=O)cc(-c4ccccc4Cl)oc23)[C@H](O)C1 [alvocidib]
# Summary of the method: (§1)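 Thermal stability, expressed as log-two fold change relative to solvent controls, is given from duplicates. Crude K562 extract in PBS pH 7.4 with 1 mM MgCl2, at 1 mg/mL protein, was treated with 10 μM compound for 30 min and heated in aliquots for 3 min across 48°C-58°C. After pooling, adjustment to 0.5% NP-40 at 4°C and centrifugation at 21,000xg for 90 min, supernatant protein was measured by TMTpro 16plex LC-MS/MS with channel sums equalised.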
# Tubastatin A = compound: CN1CCc2c(c3ccccc3n2Cc2ccc(C(=O)NO)cc2)C1 [Tubastatin A]
# Summary of the method: as §1
# [1] = compound: CNC(=O)C1=CC=CC=C1NC2=NC(=NC=C2Cl)NC3=C(C=C(C=C3)N4CCOCC4)OC
# Summary of the method: as §1
# defactinib = compound: CNC(=O)c1ccc(Nc2ncc(C(F)(F)F)c(NCc3nccnc3N(C)S(C)(=O)=O)n2)cc1 [defactinib]
# Summary of the method: as §1
# [2] = compound: CNc1nc(-c2ccc3c(N)n[nH]c3c2)cc(N2C[C@@H](C(=O)NC3CCCCC3)CC[C@H]2C)n1
# Summary of the method: as §1
# encorafenib = compound: COC(=O)N[C@@H](C)CNc1nccc(-c2cn(C(C)C)nc2-c2cc(Cl)cc(NS(C)(=O)=O)c2F)n1 [encorafenib]
# Summary of the method: as §1
# [3] = compound: COC(=O)[C@H](CCSC)NC(=O)C1=C(C=C(C=C1)NC[C@H](CS)N)C2=CC=CC=C2
# Summary of the method: as §1
# alisertib = compound: COc1cc(Nc2ncc3c(n2)-c2ccc(Cl)cc2C(c2c(F)cccc2OC)=NC3)ccc1C(=O)O [alisertib]
# Summary of the method: as §1
# [4] = compound: COc1cc2nc(-c3cc(F)ccc3O)nc(N[C@@H]3CNC[C@H]3C(C)(C)O)c2cc1OC
# Summary of the method: as §1
# gefitinib = compound: COc1cc2ncnc(Nc3ccc(F)c(Cl)c3)c2cc1OCCCN1CCOCC1 [gefitinib]
# Summary of the method: as §1
# lapatinib = compound: CS(=O)(=O)CCNCc1ccc(-c2ccc3ncnc(Nc4ccc(OCc5cccc(F)c5)c(Cl)c4)c3c2)o1 [lapatinib]
# Summary of the method: as §1
# pictilisib = compound: CS(=O)(=O)N1CCN(Cc2cc3nc(-c4cccc5[nH]ncc45)nc(N4CCOCC4)c3s2)CC1 [pictilisib]
# Summary of the method: as §1
# crizotinib = compound: C[C@@H](Oc1cc(-c2cnn(C3CCNCC3)c2)cnc1N)c1c(Cl)ccc(F)c1Cl [crizotinib]
# Summary of the method: as §1
# [5] = compound: C[C@H](C1=CC=C(C=C1)C(=O)NC2=C3C=CNC3=NC=C2)N
# Summary of the method: as §1
# duvelisib = compound: C[C@H](Nc1ncnc2nc[nH]c12)c1cc2cccc(Cl)c2c(=O)n1-c1ccccc1 [duvelisib]
# Summary of the method: as §1
# gandotinib = compound: Cc1cc(Nc2cc(CN3CCOCC3)c3nc(C)c(Cc4ccc(Cl)cc4F)n3n2)n[nH]1 [gandotinib]
# Summary of the method: as §1
# tozasertib = compound: Cc1cc(Nc2cc(N3CCN(C)CC3)nc(Sc3ccc(NC(=O)C4CC4)cc3)n2)n[nH]1 [tozasertib]
# Summary of the method: as §1
# doramapimod = compound: Cc1ccc(-n2nc(C(C)(C)C)cc2NC(=O)Nc2ccc(OCCN3CCOCC3)c3ccccc23)cc1 [doramapimod]
# Summary of the method: as §1
# bafetinib = compound: Cc1ccc(NC(=O)c2ccc(CN3CC[C@H](N(C)C)C3)c(C(F)(F)F)c2)cc1Nc1nccc(-c2cncnc2)n1 [bafetinib]
# Summary of the method: as §1
# [6] = compound: Cc1cccc(CC(=O)N2CCc3c2ccc(-c2cn(C)c4ncnc(N)c24)c3F)n1
# Summary of the method: as §1
Target,log2 fold change (alvocidib),log2 fold change (Tubastatin A),log2 fold change [1],log2 fold change (defactinib),log2 fold change [2],log2 fold change (encorafenib),log2 fold change [3],log2 fold change (alisertib),log2 fold change [4],log2 fold change (gefitinib),log2 fold change (lapatinib),log2 fold change (pictilisib),log2 fold change (crizotinib),log2 fold change [5],log2 fold change (duvelisib),log2 fold change (gandotinib),log2 fold change (tozasertib),log2 fold change (doramapimod),log2 fold change (bafetinib),log2 fold change [6]
PECAM1 (UniProt P16284),inactive: -0.05,inactive: 0.043,inactive: 0.012,inactive: 0.025,inactive: 0.054,inactive: 0.004,inactive: -0.049,inactive: -0.039,inactive: -0.007,inactive: -0.052,inactive: 0.01,inactive: -0.032,inactive: -0.011,inactive: -0.018,inactive: 0.026,inactive: 0.108,inactive: 0.022,inactive: -0.016,inactive: -0.061,inactive: 0.025
PDXK (UniProt O00764),inactive: -0.031,inactive: -0.005,inactive: 0.027,inactive: 0.047,inactive: 0.06,inactive: -0.032,inactive: -0.012,inactive: -0.038,inactive: 0.016,inactive: -0.022,inactive: -0.026,inactive: 0.014,inactive: 0.004,inactive: -0.134,inactive: 0.041,inactive: 0.109,inactive: -0.014,inactive: -0.072,inactive: 0.046,inactive: 0.083
PAXX (UniProt Q9BUH6),inactive: 0.02,inactive: -0.007,inactive: 0.042,inactive: -0.032,inactive: -0.024,inactive: 0.017,inactive: -0.04,inactive: -0.015,inactive: 0.014,inactive: -0.01,inactive: -0.015,inactive: -0.015,inactive: -0.007,inactive: -0.017,inactive: 0.016,inactive: 0.035,inactive: 0.023,inactive: 0.007,inactive: 0.002,inactive: -0.017
PER3 isoform 2 (UniProt P56645),inactive: 0.022,inactive: 0.021,inactive: 0.025,inactive: 0.11,inactive: -0.013,inactive: 0.006,inactive: -0.052,inactive: 0.005,inactive: -0.001,inactive: -0.048,inactive: 0.019,inactive: -0.069,inactive: 0.04,inactive: -0.014,inactive: -0.058,inactive: -0.019,inactive: 0.066,inactive: -0.036,inactive: 0.005,inactive: -0.071
PFKP (UniProt Q01813),inactive: 0.019,inactive: 0.031,inactive: 0.029,inactive: -0.009,inactive: -0.016,inactive: -0.041,inactive: -0.001,inactive: -0.004,inactive: 0.009,inactive: -0.006,inactive: -0.011,inactive: -0.014,inactive: 0.014,inactive: 0.033,inactive: -0.02,inactive: -0.034,inactive: -0.012,inactive: -0.015,inactive: 0.005,inactive: -0.012
PDZD11 isoform 2 (UniProt Q5EBL8),inactive: 0.005,inactive: 0.082,inactive: 0.02,inactive: 0.128,inactive: 0.058,inactive: 0.043,inactive: 0.024,inactive: -0.02,inactive: -0.004,inactive: -0.081,inactive: -0.01,inactive: -0.068,inactive: -0.038,inactive: 0.028,inactive: -0.02,inactive: 0.043,inactive: 0.069,inactive: 0.03,inactive: 0.044,inactive: -0.06
PFN1 (UniProt I3L3D5),inactive: 0.045,inactive: -0.01,,,,inactive: 0.157,inactive: 0.058,inactive: 0.028,inactive: -0.195,inactive: 0.062,inactive: 0.066,inactive: -0.062,,active: 0.524,,inactive: -0.15,inactive: -0.051,,inactive: -0.19,inactive: 0.015
PDE6D (UniProt O43924),inactive: -0.027,inactive: -0.049,inactive: 0.048,,inactive: 0.058,inactive: -0.101,inactive: -0.077,inactive: -0.024,inactive: 0.031,inactive: 0.024,inactive: 0.016,inactive: -0.24,,inactive: -0.035,inactive: -0.024,inactive: -0.008,inactive: 0.055,,inactive: 0.014,inactive: 0.059
PDXDC1 (UniProt Q6P996),inactive: -0.005,inactive: -0.065,inactive: -0.007,inactive: 0.034,inactive: 0.088,inactive: 0.058,inactive: 0.085,inactive: 0.049,inactive: -0.006,inactive: 0.032,inactive: -0.025,inactive: -0.019,inactive: -0.056,inactive: -0.011,inactive: 0.019,inactive: 0,inactive: 0.01,inactive: 0.007,inactive: -0.128,inactive: 0.062
PARP1 (UniProt P09874),inactive: 0.013,inactive: -0.043,inactive: 0.021,inactive: 0.006,inactive: -0.01,inactive: -0.013,inactive: 0.033,inactive: 0.003,inactive: -0.003,inactive: -0.03,inactive: -0.011,inactive: 0.018,inactive: 0.006,inactive: 0.023,inactive: -0.006,inactive: -0.098,inactive: 0.019,inactive: -0.019,inactive: -0.011,inactive: -0.039
PDSS2 (UniProt Q86YH6),inactive: 0.059,inactive: 0.098,inactive: 0.001,inactive: 0.036,inactive: 0.032,,,inactive: 0.037,inactive: 0.101,inactive: 0.002,inactive: 0.004,inactive: 0.032,inactive: -0.013,inactive: 0.049,inactive: -0.082,inactive: 0.012,,inactive: 0.011,inactive: -0.099,inactive: -0.085
PDLIM7 (UniProt Q9NR12),inactive: 0.011,inactive: 0.034,inactive: 0.012,inactive: 0.022,inactive: 0.018,inactive: 0.025,inactive: -0.086,inactive: 0.015,inactive: -0.002,inactive: -0.008,inactive: 0.011,inactive: 0.004,inactive: 0.015,inactive: -0.029,inactive: 0.021,inactive: 0.011,inactive: -0.023,inactive: -0.033,inactive: -0.05,inactive: -0.003
PFKFB4 (UniProt Q16877),inactive: -0.03,inactive: -0.009,inactive: 0.029,inactive: 0.011,inactive: -0.027,inactive: 0.02,inactive: -0.019,,inactive: -0.016,,inactive: -0.008,inactive: -0.061,inactive: -0.034,inactive: -0.027,inactive: 0.011,inactive: -0.044,inactive: -0.012,inactive: 0.009,inactive: -0.003,inactive: 0.039
PEX7 (UniProt O00628),inactive: -0.089,inactive: -0.077,,inactive: -0.061,inactive: -0.05,inactive: 0.056,inactive: -0.379,,inactive: 0,,inactive: -0.008,inactive: -0.124,,inactive: 0.028,inactive: -0.119,inactive: -0.041,inactive: 0.095,,inactive: 0.047,inactive: 0.012
PCBP2 (UniProt F8VRH0),inactive: -0.1,inactive: 0.067,inactive: -0.123,,,,,inactive: 0.231,inactive: 0.096,inactive: 0.045,inactive: -0.148,,inactive: 0.023,inactive: -0.116,,inactive: -0.042,,inactive: -0.01,,inactive: 0.072
PBXIP1 (UniProt Q96AQ6),inactive: -0.029,inactive: 0.012,inactive: -0.01,inactive: 0.005,inactive: 0.062,inactive: 0.042,inactive: -0.09,inactive: 0.013,inactive: 0.008,inactive: 0.008,inactive: -0.008,inactive: -0.025,inactive: 0.008,inactive: -0.038,inactive: -0.003,inactive: -0.011,inactive: 0.007,inactive: -0.018,inactive: -0.007,inactive: 0.025
PCLO (UniProt Q9Y6V0),inactive: -0.252,inactive: 0.104,inactive: 0.01,inactive: 0.061,inactive: 0.335,inactive: 0.041,inactive: -0.033,inactive: -0.036,inactive: 0.057,inactive: -0.078,inactive: 0.001,inactive: 0.034,inactive: -0.087,inactive: -0.298,inactive: 0.073,inactive: 0.406,inactive: -0.054,inactive: -0.044,inactive: 0,inactive: 0.365

# Reprinted at random: two records from the list
Target,log2 fold change (alvocidib),log2 fold change (Tubastatin A),log2 fold change [1],log2 fold change (defactinib),log2 fold change [2],log2 fold change (encorafenib),log2 fold change [3],log2 fold change (alisertib),log2 fold change [4],log2 fold change (gefitinib),log2 fold change (lapatinib),log2 fold change (pictilisib),log2 fold change (crizotinib),log2 fold change [5],log2 fold change (duvelisib),log2 fold change (gandotinib),log2 fold change (tozasertib),log2 fold change (doramapimod),log2 fold change (bafetinib),log2 fold change [6]
PFN1 (UniProt I3L3D5),inactive: 0.045,inactive: -0.01,,,,inactive: 0.157,inactive: 0.058,inactive: 0.028,inactive: -0.195,inactive: 0.062,inactive: 0.066,inactive: -0.062,,active: 0.524,,inactive: -0.15,inactive: -0.051,,inactive: -0.19,inactive: 0.015
PFKP (UniProt Q01813),inactive: 0.019,inactive: 0.031,inactive: 0.029,inactive: -0.009,inactive: -0.016,inactive: -0.041,inactive: -0.001,inactive: -0.004,inactive: 0.009,inactive: -0.006,inactive: -0.011,inactive: -0.014,inactive: 0.014,inactive: 0.033,inactive: -0.02,inactive: -0.034,inactive: -0.012,inactive: -0.015,inactive: 0.005,inactive: -0.012
